Source: doi:10.1101/2021.06.08.447242
Like-named read-outs stand apart in the source and are kept apart here. No constants are given. Whether binding was seen depends on the method and setting. Binding seen in cells or lysates may run through a third protein. Some binding calls cover weakened binding; strength is not graded here.

By UniProt entry, the sequences of proteins in these tests, tags left out.
UniProt P16403: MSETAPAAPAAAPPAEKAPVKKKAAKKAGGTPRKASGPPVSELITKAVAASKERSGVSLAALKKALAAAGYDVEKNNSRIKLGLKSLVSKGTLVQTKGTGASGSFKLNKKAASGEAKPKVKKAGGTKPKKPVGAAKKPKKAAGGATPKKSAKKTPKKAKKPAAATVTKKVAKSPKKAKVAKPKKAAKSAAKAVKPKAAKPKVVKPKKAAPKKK
UniProt Q9P0U4: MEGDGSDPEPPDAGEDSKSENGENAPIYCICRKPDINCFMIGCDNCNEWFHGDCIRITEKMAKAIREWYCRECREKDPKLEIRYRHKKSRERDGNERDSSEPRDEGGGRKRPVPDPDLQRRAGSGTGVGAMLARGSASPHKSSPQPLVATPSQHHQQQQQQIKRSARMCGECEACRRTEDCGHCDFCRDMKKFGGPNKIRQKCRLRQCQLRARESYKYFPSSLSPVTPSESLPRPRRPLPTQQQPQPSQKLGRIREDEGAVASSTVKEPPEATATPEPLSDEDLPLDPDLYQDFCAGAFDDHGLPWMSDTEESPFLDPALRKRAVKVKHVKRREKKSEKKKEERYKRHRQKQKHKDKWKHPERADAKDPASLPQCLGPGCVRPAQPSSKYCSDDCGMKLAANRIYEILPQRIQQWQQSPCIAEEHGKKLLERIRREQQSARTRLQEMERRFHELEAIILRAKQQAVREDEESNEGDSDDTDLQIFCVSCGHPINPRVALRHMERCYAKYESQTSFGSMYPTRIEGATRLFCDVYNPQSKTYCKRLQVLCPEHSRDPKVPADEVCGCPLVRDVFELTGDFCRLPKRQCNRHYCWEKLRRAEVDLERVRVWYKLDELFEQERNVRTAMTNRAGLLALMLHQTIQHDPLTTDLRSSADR
UniProt Q15022: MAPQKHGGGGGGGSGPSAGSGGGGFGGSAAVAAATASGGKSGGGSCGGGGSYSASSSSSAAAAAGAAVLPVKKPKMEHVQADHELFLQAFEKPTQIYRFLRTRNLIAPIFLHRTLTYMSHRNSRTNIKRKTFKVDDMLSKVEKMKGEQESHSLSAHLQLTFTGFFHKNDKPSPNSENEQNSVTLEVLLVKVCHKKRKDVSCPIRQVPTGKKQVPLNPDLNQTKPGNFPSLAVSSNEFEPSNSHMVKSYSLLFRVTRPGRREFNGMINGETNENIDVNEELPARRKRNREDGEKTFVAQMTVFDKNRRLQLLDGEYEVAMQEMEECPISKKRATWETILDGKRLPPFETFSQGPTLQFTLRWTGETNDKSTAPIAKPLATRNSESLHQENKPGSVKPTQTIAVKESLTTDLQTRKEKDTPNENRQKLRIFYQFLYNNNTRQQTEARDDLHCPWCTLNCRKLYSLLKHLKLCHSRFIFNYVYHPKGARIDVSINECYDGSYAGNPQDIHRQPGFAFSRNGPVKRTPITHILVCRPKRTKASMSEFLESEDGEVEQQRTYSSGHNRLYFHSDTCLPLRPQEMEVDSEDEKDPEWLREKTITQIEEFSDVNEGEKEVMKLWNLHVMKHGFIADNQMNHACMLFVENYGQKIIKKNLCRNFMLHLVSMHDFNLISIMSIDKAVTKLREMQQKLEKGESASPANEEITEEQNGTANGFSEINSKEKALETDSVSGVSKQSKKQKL
UniProt Q01105: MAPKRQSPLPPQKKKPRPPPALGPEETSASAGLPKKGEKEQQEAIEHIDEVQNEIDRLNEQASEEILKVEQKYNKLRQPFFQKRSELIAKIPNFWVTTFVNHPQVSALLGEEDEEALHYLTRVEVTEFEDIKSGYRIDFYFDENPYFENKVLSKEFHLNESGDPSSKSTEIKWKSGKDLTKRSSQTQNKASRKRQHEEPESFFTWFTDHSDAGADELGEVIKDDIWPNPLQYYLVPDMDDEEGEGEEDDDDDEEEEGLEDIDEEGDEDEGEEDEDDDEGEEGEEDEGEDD
UniProt Q6ZN18: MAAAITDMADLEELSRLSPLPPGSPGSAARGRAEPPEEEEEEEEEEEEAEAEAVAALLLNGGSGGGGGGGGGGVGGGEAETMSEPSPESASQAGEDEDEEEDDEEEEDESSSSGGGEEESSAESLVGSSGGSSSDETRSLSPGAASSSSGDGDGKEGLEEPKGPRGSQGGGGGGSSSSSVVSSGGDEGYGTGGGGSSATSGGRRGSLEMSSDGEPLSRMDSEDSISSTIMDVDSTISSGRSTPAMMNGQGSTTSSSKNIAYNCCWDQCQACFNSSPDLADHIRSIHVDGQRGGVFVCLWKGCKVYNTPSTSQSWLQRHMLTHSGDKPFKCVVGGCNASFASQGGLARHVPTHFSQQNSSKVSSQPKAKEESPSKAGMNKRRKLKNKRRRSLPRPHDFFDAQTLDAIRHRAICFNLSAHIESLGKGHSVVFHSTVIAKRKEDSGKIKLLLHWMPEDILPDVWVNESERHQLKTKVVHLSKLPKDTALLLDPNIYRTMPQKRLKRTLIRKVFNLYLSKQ
UniProt Q9UBL3: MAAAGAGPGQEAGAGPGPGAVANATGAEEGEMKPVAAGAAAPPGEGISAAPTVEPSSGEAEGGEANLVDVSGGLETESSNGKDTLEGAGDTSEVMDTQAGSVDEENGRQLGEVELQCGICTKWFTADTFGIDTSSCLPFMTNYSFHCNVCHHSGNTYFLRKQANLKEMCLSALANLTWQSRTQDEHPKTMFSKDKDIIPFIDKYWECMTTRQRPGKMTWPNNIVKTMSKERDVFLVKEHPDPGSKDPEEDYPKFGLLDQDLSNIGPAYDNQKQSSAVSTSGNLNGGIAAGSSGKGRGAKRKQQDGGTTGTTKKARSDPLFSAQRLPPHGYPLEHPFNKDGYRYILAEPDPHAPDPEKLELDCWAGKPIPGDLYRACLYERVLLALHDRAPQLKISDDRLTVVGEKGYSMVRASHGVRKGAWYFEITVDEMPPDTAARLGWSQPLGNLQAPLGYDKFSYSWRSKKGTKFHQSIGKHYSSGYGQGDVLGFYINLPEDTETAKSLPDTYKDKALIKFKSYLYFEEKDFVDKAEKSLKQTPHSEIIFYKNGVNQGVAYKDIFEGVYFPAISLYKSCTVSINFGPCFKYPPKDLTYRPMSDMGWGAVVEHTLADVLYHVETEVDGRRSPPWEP

Legend:
Experiment in all cases: pull-down
[1] = biological target: H1.2 K17Ac (H1.2 acetylated at lysine 17) (human) (UniProt P16403)
[2] = biological target: linker histone H1.2 (unmodified) (human) (UniProt P16403)
[3] = biological target: H1.2 K17K64Ac (H1.2 acetylated at lysines 17 and 64) (human) (UniProt P16403)
[4] = biological target: H1.2 K64Ac (H1.2 acetylated at lysine 64) (human) (UniProt P16403)
[5] = biological target: H1.2 K17Ac (H1.2 acetylated at lysine 17) (human) (UniProt P16403); remark: listed apart in the source
[6] = biological target: H1.2 K17K64Ac (H1.2 acetylated at lysines 17 and 64) (human) (UniProt P16403); remark: listed apart in the source

Molecule	binding [1]	binding [2]	binding [3]	binding [4]	binding [5]	binding [6]
CXXC1 (from UniProt Q9P0U4 1-656)	binds	binds	–	–	–	–
SUZ12 (from UniProt Q15022 1-739)	binds	binds	–	–	–	–
SET (from UniProt Q01105 1-290)	binds	binds	binds	binds	–	–
AEBP2 (from UniProt Q6ZN18 1-517)	binds	binds	–	–	–	–
ASH2L (from UniProt Q9UBL3 1-628)	binds	binds	–	–	–	–
ASCC2 (protein, UniProt Q9H1I8 1-757) MPALPLDQLQITHKDPKTGKLRTSPALHPEQKADRYFVLYKPPPKDNIPALVEEYLERATFVANDLDWLLALPHDKFWCQVIFDETLQKCLDSYLRYVPRKFDEGVASAPEVVDMQKRLHRSVFLTFLRMSTHKESKDHFISPSAFGEILYNNFLFDIPKILDLCVLFGKGNSPLLQKMIGNIFTQQPSYYSDLDETLPTILQVFSNILQHCGLQGDGANTTPQKLEERGRLTPSDMPLLELKDIVLYLCDTCTTLWAFLDIFPLACQTFQKHDFCYRLASFYEAAIPEMESAIKKRRLEDSKLLGDLWQRLSHSRKKLMEIFHIILNQICLLPILESSCDNIQGFIEEFLQIFSSLLQEKRFLRDYDALFPVAEDISLLQQASSVLDETRTAYILQAVESAWEGVDRRKATDAKDPSVIEEPNGEPNGVTVTAEAVSQASSHPENSEEEECMGAAAAVGPAMCGVELDSLISQVKDLLPDLGEGFILACLEYYHYDPEQVINNILEERLAPTLSQLDRNLDREMKPDPTPLLTSRHNVFQNDEFDVFSRDSVDLSRVHKGKSTRKEENTRSLLNDKRAVAAQRQRYEQYSVVVEEVPLQPGESLPYHSVYYEDEYDDTYDGNQVGANDADSDDELISRRPFTIPQVLRTKVPREGQEEDDDDEEDDADEEAPKPDHFVQDPAVLREKAEARRMAFLAKKGYRHDSSTAVAGSPRGHGQSRETTQERRKKEANKATRANHNRRTMADRKRSKGMIPS	–	–	–	–	binds	binds
